Values from PubChem BioAssay AID1259297 (Sanger Institute, 2017).

Aim: 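Kinases whose loss kills cells on their own or with targeted drugs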 (primary screen)
Cell system: human RCM1 colorectal cancer cell line
Reagents: siRNA pool against human genes
Treatment: separate arms: DMSO vehicle, or one anchor drug at a mild dose: BYL719 1 µM, cetuximab 5 µg/ml, trametinib 10 nM
Detection: 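Viability per well relative to a non-targeting pool, mean of replicates; robust z-score for knock-down alone; synergy score with BYL719, cetuximab or trametinib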
Reading the numbers: viability z-score, knock-down alone: higher = more viable cells than non-targeting controls
Hit rule: 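Essential when the viability robust z-score for knock-down alone is below -3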
Calls: active = essential when knocked down alone; inactive = no clear loss of viability alone
Here is an unselected part of 794 deposited reagents. In the full data, 13 (1.6%) are marked active. 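Calls reflect knock-down without drug only; drug synergy is judged separately, with scores above 0.15 counted as synergy.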 Not all columns of the deposit are shown. Not given: the amount of reagent, the time to read-out.

{"gene": "CAMKK1", "viability z-score, knock-down alone": 0.9, "call": "inactive"}
{"gene": "PHKA2", "viability z-score, knock-down alone": -1.39, "call": "inactive"}
{"gene": "TTK", "viability z-score, knock-down alone": 0.9, "call": "inactive"}
{"gene": "MAP2K4", "viability z-score, knock-down alone": -0.542, "call": "inactive"}
{"gene": "NAGK", "viability z-score, knock-down alone": 0.00189, "call": "inactive"}
{"gene": "NUP62", "viability z-score, knock-down alone": 0.9, "call": "inactive"}
{"gene": "CDC7", "viability z-score, knock-down alone": -1.09, "call": "inactive"}
{"gene": "UCK1", "viability z-score, knock-down alone": 0.9, "call": "inactive"}
{"gene": "FES", "viability z-score, knock-down alone": -0.568, "call": "inactive"}
{"gene": "TAOK1", "viability z-score, knock-down alone": -0.994, "call": "inactive"}
{"gene": "DGKB", "viability z-score, knock-down alone": -1.14, "call": "inactive"}
{"gene": "PGK2", "viability z-score, knock-down alone": 0.513, "call": "inactive"}
{"gene": "CAMK2B", "viability z-score, knock-down alone": 0.9, "call": "inactive"}
{"gene": "MECOM", "viability z-score, knock-down alone": 0.879, "call": "inactive"}
{"gene": "TJP2", "viability z-score, knock-down alone": -0.52, "call": "inactive"}
{"gene": "RIPK2", "viability z-score, knock-down alone": 0.9, "call": "inactive"}
{"gene": "UCKL1", "viability z-score, knock-down alone": 0.9, "call": "inactive"}
{"gene": "PRKCD", "viability z-score, knock-down alone": -0.726, "call": "inactive"}
{"gene": "STK38", "viability z-score, knock-down alone": -1.42, "call": "inactive"}
{"gene": "EPHA8", "viability z-score, knock-down alone": -0.139, "call": "inactive"}
{"gene": "TGFBR1", "viability z-score, knock-down alone": 0.206, "call": "inactive"}
{"gene": "PRKACB", "viability z-score, knock-down alone": 0.9, "call": "inactive"}
{"gene": "ARAF", "viability z-score, knock-down alone": 0.9, "call": "inactive"}
{"gene": "SRPK2", "viability z-score, knock-down alone": 0.597, "call": "inactive"}
{"gene": "ACVR1", "viability z-score, knock-down alone": -0.462, "call": "inactive"}
{"gene": "TSSK2", "viability z-score, knock-down alone": -1.21, "call": "inactive"}
{"gene": "PRKACG", "viability z-score, knock-down alone": 0.0235, "call": "inactive"}
{"gene": "PCK1", "viability z-score, knock-down alone": -0.459, "call": "inactive"}

Entries listed so far whose gene name begins with N or n (2):
{"gene": "NAGK", "viability z-score, knock-down alone": 0.00189, "call": "inactive"}
{"gene": "NUP62", "viability z-score, knock-down alone": 0.9, "call": "inactive"}
